No constants are given. Whether binding was seen depends on the method and setting. In cells and extracts the contact can be indirect. Some binding calls cover weakened binding; strength is not graded here.
Biological target: HDAC1 (rat (endogenous in HiB5)) (UniProt Q4QQW4)
Assay: co-IP; nuclear protein extract (200 ug) of differentiated HiB5 cells (untreated, or transduced with LVV carrying non-target RNA or HDAC1 shRNAi); precipitated overnight at 4 °C with rabbit anti-HDAC1 antibody, protein G magnetic beads; rabbit IgG as negative control; DAXX detected by western blot

Chains of the proteins cited; added tags and fusions are not shown.
UniProt Q4QQW4: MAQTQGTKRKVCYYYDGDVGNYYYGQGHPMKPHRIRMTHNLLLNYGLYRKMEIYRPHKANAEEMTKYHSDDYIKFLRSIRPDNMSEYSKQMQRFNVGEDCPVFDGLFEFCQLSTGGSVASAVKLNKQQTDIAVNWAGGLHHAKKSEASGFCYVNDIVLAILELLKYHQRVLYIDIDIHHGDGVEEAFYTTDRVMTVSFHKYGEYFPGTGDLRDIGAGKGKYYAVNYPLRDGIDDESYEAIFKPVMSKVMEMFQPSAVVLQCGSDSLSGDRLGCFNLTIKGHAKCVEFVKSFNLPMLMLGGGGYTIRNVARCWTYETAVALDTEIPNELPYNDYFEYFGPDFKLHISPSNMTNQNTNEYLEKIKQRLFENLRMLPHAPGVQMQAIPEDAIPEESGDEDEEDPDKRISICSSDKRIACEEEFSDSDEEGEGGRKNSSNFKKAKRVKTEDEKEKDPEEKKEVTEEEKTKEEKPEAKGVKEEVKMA
UniProt Q8VIB2: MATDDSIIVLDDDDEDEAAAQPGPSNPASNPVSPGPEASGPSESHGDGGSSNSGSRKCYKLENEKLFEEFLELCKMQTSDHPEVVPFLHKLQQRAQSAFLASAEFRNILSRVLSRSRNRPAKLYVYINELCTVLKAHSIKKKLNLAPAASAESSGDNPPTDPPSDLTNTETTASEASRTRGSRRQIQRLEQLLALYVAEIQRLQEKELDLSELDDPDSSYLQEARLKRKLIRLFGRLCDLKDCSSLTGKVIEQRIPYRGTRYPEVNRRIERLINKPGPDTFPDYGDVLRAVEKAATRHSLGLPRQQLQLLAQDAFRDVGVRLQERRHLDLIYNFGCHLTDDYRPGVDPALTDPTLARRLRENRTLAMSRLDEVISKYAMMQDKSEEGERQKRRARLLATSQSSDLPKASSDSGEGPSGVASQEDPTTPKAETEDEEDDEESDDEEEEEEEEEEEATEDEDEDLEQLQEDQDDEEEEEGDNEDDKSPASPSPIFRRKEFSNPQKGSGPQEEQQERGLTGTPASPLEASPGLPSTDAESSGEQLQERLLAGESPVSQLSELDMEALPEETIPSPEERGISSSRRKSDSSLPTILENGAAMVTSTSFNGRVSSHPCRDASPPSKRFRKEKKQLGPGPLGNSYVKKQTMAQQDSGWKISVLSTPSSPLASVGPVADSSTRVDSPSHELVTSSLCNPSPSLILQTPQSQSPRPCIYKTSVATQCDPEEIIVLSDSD

With DAXX (from UniProt Q8VIB2 1-731) the binding was “binds”.
